PubChem BioAssay AID743121, NCATS, 2013
Here is one part, drawn at random, of about 26,000 reagents tested. Of all reagents, 167 (0.63%) were called active. 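Calls are per gene from RSA p-values that are not deposited; an individual active-marked siRNA can sensitise only weakly.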 Unmarked entries are inactive. Further read-outs or replicates are left out here. Reagent sequences are not shown.

Purpose: 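Genes whose silencing strengthens cell killing by camptothecin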 (primary screen)
System: MDA-MB-231 cells, a human breast cancer line
Reagent: single siRNA against human genes, 20 nM siRNA (0.8 pmol per well)
Duration: 120 h (drug added 48 h after transfection, read 72 h later)
Treatment: camptothecin 20 nM (about EC30) for 72 h; vehicle 0.1% DMSO in parallel plates
Measurement: 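Cell viability by ATP luminescence (CellTiter-Glo) as % of non-targeting siRNA wells, and the log2 ratio of viability without drug over viability with camptothecin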
Scale: log2 vehicle/camptothecin viability: higher = stronger sensitisation to camptothecin
Active means: 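Active genes have an RSA gene-level p-value below 0.001, computed from the ratios of their separate siRNAs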

RET (GeneID 5979) [SID164385108]
- log2 vehicle/camptothecin viability: -0.383

RET (GeneID 5979) [SID164385111]
- log2 vehicle/camptothecin viability: -0.0264

RET (GeneID 5979) [SID164385116]
- log2 vehicle/camptothecin viability: -0.459

RET (GeneID 5979) [SID164385118]
- log2 vehicle/camptothecin viability: 0.112

Next part (2 carried over from the part before).
RET (GeneID 5979) [SID164385116]
- log2 vehicle/camptothecin viability: -0.459

RET (GeneID 5979) [SID164385118]
- log2 vehicle/camptothecin viability: 0.112

DBT (GeneID 1629) [SID164361106]
- log2 vehicle/camptothecin viability: -0.207

DBT (GeneID 1629) [SID164361108]
- log2 vehicle/camptothecin viability: -0.129

DBT (GeneID 1629) [SID164361110]
- log2 vehicle/camptothecin viability: -0.619

KLK15 (GeneID 55554) [SID164485135]
- log2 vehicle/camptothecin viability: -0.239

KLK15 (GeneID 55554) [SID164485138]
- log2 vehicle/camptothecin viability: 1.16

KLK15 (GeneID 55554) [SID164485139]
- log2 vehicle/camptothecin viability: -0.0896

IQGAP3 (GeneID 128239) [SID164568610]
- log2 vehicle/camptothecin viability: -0.233

IQGAP3 (GeneID 128239) [SID164568612]
- log2 vehicle/camptothecin viability: -0.098

IQGAP3 (GeneID 128239) [SID164568615]
- log2 vehicle/camptothecin viability: -0.258

IQGAP3 (GeneID 128239) [SID164568616]
- log2 vehicle/camptothecin viability: -0.205
